Reference: the supplement of paper PMC10331698
± gives the standard deviation of the averaged measurements. Small differences around the control level are noise.

Assays:
Experiment in all cases: level (log10 ratio to DMSO vehicle control); higher = higher biomarker level / cell amount than vehicle control
[1] = compound: O=S(=O)(O)CCC(F)(F)C(F)(F)C(F)(F)C(F)(F)C(F)(F)C(F)(F)C(F)(F)C(F)(F)F [8:2 Fluorotelomer sulfonic acid]; conditions: in DMSO
Method: (§1)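 BioMAP Diversity Plus panel of 12 human primary cell co-culture systems (3C, 4H, LPS, SAg, BT, BF4T, BE3C, CASM3C, HDF3CGF, KF3CT, MyoF, Mphg). Compounds were added 1 h before stimulation and left for 24 h (MyoF 48 h; BT 72 h for soluble read-outs or 6 d for IgG). Biomarkers were read by ELISA, cytotoxicity by SRB, PBMC viability and proliferation by Alamar Blue. Each well value was divided by the mean of 8 DMSO control wells on the same plate and log10 transformed; duplicate blinded samples were tested at 4 concentrations.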

1-(Perfluorohexyl)octane = compound: CCCCCCCCC(F)(F)C(F)(F)C(F)(F)C(F)(F)C(F)(F)C(F)(F)F [1-(Perfluorohexyl)octane]; conditions: in DMSO
Method: as §1

[2] = compound: OCCC(F)(F)C(F)(F)C(F)(F)C(F)(F)C(F)(F)C(F)(F)F [6:2 Fluorotelomer alcohol]; conditions: 2200 nM; in DMSO
Method: as §1

[3] = compound: O=C(O)C(F)(F)C(F)(F)C(F)(F)OC(F)(F)F [Perfluoro(4-methoxybutanoic) acid]; conditions: 2200 nM; in DMSO
Method: as §1

[4] = compound: O=C(O)C(F)(F)C(F)(F)C(F)(F)C(F)(F)C(F)(F)C(F)(F)C(F)(F)C(F)(F)C(F)(F)C(F)F [11-H-Perfluoroundecanoic acid]; conditions: 2200 nM; in DMSO
Method: as §1

[5] = compound: CC(C)(C)C(=O)CC(=O)C(F)(F)C(F)(F)C(F)(F)F [(Heptafluorobutanoyl)pivaloylmethane]; conditions: 2200 nM; in DMSO
Method: as §1

Octafluoroadipic acid = compound: O=C(O)C(F)(F)C(F)(F)C(F)(F)C(F)(F)C(=O)O [Octafluoroadipic acid]; conditions: 2200 nM; in DMSO
Method: as §1

Perfluoroheptanoic acid = compound: O=C(O)C(F)(F)C(F)(F)C(F)(F)C(F)(F)C(F)(F)C(F)(F)F [Perfluoroheptanoic acid]; conditions: in DMSO
Method: as §1

Perfluoropentanoic acid = compound: O=C(O)C(F)(F)C(F)(F)C(F)(F)C(F)(F)F [Perfluoropentanoic acid]; conditions: in DMSO
Method: as §1

[6] = compound: CCN(CCO)S(=O)(=O)C(F)(F)C(F)(F)C(F)(F)C(F)(F)C(F)(F)C(F)(F)C(F)(F)C(F)(F)F [N-Ethyl-N-(2-hydroxyethyl)perfluorooctanesulfonamide]; conditions: in DMSO
Method: as §1

1H,1H-Heptafluorobutanol = compound: OCC(F)(F)C(F)(F)C(F)(F)F [1H,1H-Heptafluorobutanol]; conditions: 2200 nM; in DMSO
Method: as §1

[7] = compound: Cc1ccc(S(=O)(=O)OCC(F)(F)C(F)(F)C(F)(F)C(F)(F)C(F)(F)C(F)F)cc1 [1H,1H,7H-Perfluoroheptyl 4-methylbenzenesulfonate]; conditions: 2200 nM; in DMSO
Method: as §1

[8] = compound: NCC(F)(F)C(F)(F)C(F)(F)C(F)(F)C(F)(F)C(F)(F)C(F)(F)F [1H,1H-Perfluorooctylamine]; conditions: 2200 nM; in DMSO
Method: as §1

Heptafluorobutyramide = compound: NC(=O)C(F)(F)C(F)(F)C(F)(F)F [Heptafluorobutyramide]; conditions: 2200 nM; in DMSO
Method: as §1

[9] = compound: FC(F)(F)C(F)(F)C(F)(F)C(F)(F)C(F)(F)C(F)(F)CC1CO1 [3-(Perfluorohexyl)-1,2-epoxypropane]; conditions: 2200 nM; in DMSO
Method: as §1

[10] = compound: CN(C(=O)C(F)(F)C(F)(F)C(F)(F)F)[Si](C)(C)C [N-Methyl-N-trimethylsilylheptafluorobutyramide]; conditions: 2200 nM; in DMSO
Method: as §1

Row | Test System | level (log10) ([1]; 2200 nM) | level (log10) ([1]; 6700 nM) | level (log10) ([1]; 20000 nM) | level (log10) ([1]; 60000 nM) | level (log10) (1-(Perfluorohexyl)octane; 740 nM) | level (log10) (1-(Perfluorohexyl)octane; 2200 nM) | level (log10) [2] | level (log10) [3] | level (log10) [4] | level (log10) [5] | level (log10) (Octafluoroadipic acid) | level (log10) (Perfluoroheptanoic acid; 2200 nM) | level (log10) (Perfluoroheptanoic acid; 6700 nM) | level (log10) (Perfluoroheptanoic acid; 20000 nM) | level (log10) (Perfluoroheptanoic acid; 60000 nM) | level (log10) (Perfluoropentanoic acid; 2200 nM) | level (log10) (Perfluoropentanoic acid; 6700 nM) | level (log10) (Perfluoropentanoic acid; 20000 nM) | level (log10) (Perfluoropentanoic acid; 60000 nM) | level (log10) ([6]; 2200 nM) | level (log10) ([6]; 6700 nM) | level (log10) ([6]; 20000 nM) | level (log10) (1H,1H-Heptafluorobutanol) | level (log10) [7] | level (log10) [8] | level (log10) (Heptafluorobutyramide) | level (log10) [9] | level (log10) [10]
1 | BE3C:IL-1alpha | 0.0085 ± 0.0035 | 0.016 ± 0.027 | -0.0055 ± 0.0064 | -0.043 ± 0.037 | 0.009 ± 0.0028 | 0.014 ± 0.014 | 0.027 ± 0.041 | 0.052 ± 0.0014 | 0.045 ± 0.052 | -0.0075 ± 0.013 | 0.037 ± 0.0085 | 0.003 ± 0.061 | -0.0185 ± 0.029 | -0.0065 ± 0.03 | 0.0115 ± 0.0064 | 0.015 ± 0.011 | 0.005 ± 0.02 | 0 ± 0.0028 | 0.0155 ± 0.029 | 0.0145 ± 0.021 | 0.0165 ± 0.005 | -0.0485 ± 0.059 | 0.006 ± 0.034 | 0.0125 ± 0.018 | -0.0025 ± 0.035 | -0.0085 ± 0.0021 | 0.006 ± 0.041 | 0.0205 ± 0.044
2 | BE3C:Keratin 8/18 | -0.008 ± 0.0071 | 0.007 ± 0.0042 | 0.017 ± 0.0085 | 0.043 ± 0.014 | 0.0165 ± 0.011 | -0.0005 ± 0.0035 | -0.0045 ± 0.025 | -0.0105 ± 0.005 | -0.0135 ± 0.044 | 0.013 ± 0.021 | 0.004 ± 0.027 | 0.0045 ± 0.03 | -0.0135 ± 0.005 | -0.0135 ± 0.0078 | -0.0025 ± 0.012 | 0.0125 ± 0.018 | -0.006 ± 0.0057 | -0.011 ± 0.0071 | 0.0035 ± 0.032 | -0.01 ± 0.018 | 0 ± 0.014 | -0.007 ± 0.014 | -0.0245 ± 0.013 | -0.012 ± 0.0042 | -0.013 ± 0.0085 | -0.0145 ± 0.025 | -0.004 ± 0.0028 | -0.002 ± 0.025
3 | BE3C:MMP-1 | 0.0285 ± 0.022 | 0.048 ± 0.024 | 0.1715 ± 0.00071 | 0.232 ± 0.027 | 0.0205 ± 0.013 | 0.0055 ± 0.0064 | -0.0165 ± 0.0078 | 0.0255 ± 0.036 | 0.0195 ± 0.037 | -0.002 ± 0.017 | 0.017 ± 0.086 | 0.0705 ± 0.037 | 0.0345 ± 0.015 | 0.0405 ± 0.043 | 0.0865 ± 0.067 | 0.0195 ± 0.084 | -0.015 ± 0.03 | -0.0175 ± 0.029 | 0.027 ± 0.047 | 0.083 ± 0.0071 | 0.255 ± 0.03 | 0.328 ± 0.0071 | -0.003 ± 0.03 | 0.0355 ± 0.035 | -0.0185 ± 0.021 | 0.0215 ± 0.037 | 0.046 ± 0.072 | 0.02 ± 0.064
4 | BE3C:MMP-9 | 0.0015 ± 0.00071 | 0.0045 ± 0.0064 | 0.0325 ± 0.035 | 0.015 ± 0.031 | 0.011 ± 0.037 | -0.009 ± 0.011 | 0.0155 ± 0.028 | 0.0155 ± 0.019 | -0.024 ± 0.033 | -0.01 ± 0.0099 | 0.006 ± 0.017 | 0.0245 ± 0.011 | 0.0015 ± 0.018 | 0.042 ± 0.0014 | 0.0785 ± 0.057 | 0.0055 ± 0.042 | -0.0325 ± 0.0078 | -0.0105 ± 0.015 | 0.0215 ± 0.035 | 0.0045 ± 0.021 | 0.018 ± 0.0071 | -0.0535 ± 0.04 | 0.013 ± 0.016 | 0.0075 ± 0.005 | 0.0055 ± 0.028 | -0.002 ± 0.0085 | -0.0095 ± 0.0078 | 0.0065 ± 0.0035
